Assay results: publication PMC5584254, “Identification of novel small molecule Beclin 1 mimetics activating autophagy” (Oncotarget, 2017)

Protein sequences, listed by entry. Tags and fused reporters are not part of them.
UniProt Q07817, whole entry: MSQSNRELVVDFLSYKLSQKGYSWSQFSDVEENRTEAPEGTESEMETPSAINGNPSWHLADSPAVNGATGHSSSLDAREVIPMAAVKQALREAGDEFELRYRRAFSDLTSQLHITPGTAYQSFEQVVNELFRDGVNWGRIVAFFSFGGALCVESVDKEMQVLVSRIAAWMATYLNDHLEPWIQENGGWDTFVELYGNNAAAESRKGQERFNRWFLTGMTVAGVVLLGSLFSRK

How the values were obtained:
Bcl-xL-Beclin 1 complex [1] = molecular target: T1, Bcl-xL-Beclin 1 complex (Homo sapiens, UniProt Q07817); assay: FP-based high-throughput screening, primary screen; format: binding
T1 construct: made in house
From the text: Next, we optimized the FP competitive binding assay in a 384-well microplate format and carried out a small-scale HTS using a small library, which contains 6580 compounds from Prestwick, Microsource and our in-house CMLD library. Then, the FP assay was optimized and applied in screening the larger Chembridge library consisting of 43736 compounds. HTS cascades are shown in Supplementary Figure 1A–1B. […] All chemical structures can be found on the PubChem website (http://pubchem.ncbi.nlm.nih.gov/).
(§1) Then the plates were read by Envision (Perkin Elmer, Waltham, MA). […] The hits were selected from library stocks and reconfirmed in a concentration response FP assay (6 doses ranging from 5 μM to 160 μM or 8 doses ranging from 0.5 μM to 60 μM).

Bcl-xL-Beclin 1 complex [2] = molecular target: T1, Bcl-xL-Beclin 1 complex; assay: Concentration response FP reconfirmation of HTS hits; format: binding
Experimental: as §1

With `CC(C)(C)CC(C)(C)c1ccc(OCCOCC[N+](C)(C)Cc2ccccc2)cc1` [Compound A07, BENZETHONIUM CHLORIDE] the “Primary Screen mP” value (Bcl-xL-Beclin 1 complex [1]; first screen, 40 μM compound, 2.5 μM Bcl-xL, 400 nM 20-mer) was 120.2 mP, the inhibition at 40 µM (Bcl-xL-Beclin 1 complex [1]; read-out: Primary Screen % Inhibition) was 9.66% and the inhibition at 5 µM (Bcl-xL-Beclin 1 complex [2]; read-out: Dose-response (% Inhibition) 5 μM) was -3.1%. The inhibition at 10 µM (Bcl-xL-Beclin 1 complex [2]; read-out: Dose-response (% Inhibition) 10 μM) was -0.1%, the inhibition at 20 µM (Bcl-xL-Beclin 1 complex [2]; read-out: Dose-response (% Inhibition) 20 μM) was 2.1% and the inhibition at 40 µM (Bcl-xL-Beclin 1 complex [2]; read-out: Dose-response (% Inhibition) 40 μM) was 3.4%. For the same compound, the inhibition at 80 µM (Bcl-xL-Beclin 1 complex [2]; read-out: Dose-response (% Inhibition) 80 μM) was 6.4% and the inhibition at 160 µM (Bcl-xL-Beclin 1 complex [2]; read-out: Dose-response (% Inhibition) 160 μM) was 13.7%.
